Assay results from PubChem BioAssay AID1347423 (Functional Genomics Laboratory (NCATS/FGL), 2020).
Out of some 52,000 sequences screened, about 210 (0.4%) were called active.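 Rule for the calls: active = gene whose silencing raises cell survival under the drug, median off-target-corrected z-score across its silencing RNAs 2 or more; inactive = the rest.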 Some of the results follow.

Experiment: Resistance to Poly (ADP-Ribose) Polymerase inhibitor: Gene Identification via Genome-wide siRNA Screen
Settings: mouse BRCA2 R2336H ES cells, olaparib, CellTiter-Glo viability; hits give high values
Outline: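 Genome-wide siRNA screen (3 siRNAs/gene, 20 nM) in mouse ES cells carrying hypomorphic BRCA2 R2336H; olaparib 500 nM added 48 h post-transfection, CellTiter-Glo viability 72 h later. Normalized to plate-median negative control; MAD z-scores, gene median, seed-adjusted.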

Sequence | z-score
GCCUCAUGUCUACUCGCUUTT against Gpr66 | inactive: 0.477
GGCCUACGAUAUUUCACAATT against Oosp1 | inactive: 0.449
GGCCCACAAGGCUGUUUUGTT against Zfp131 | inactive: -0.809
GGAAGAGAUUUCUAAACUUTT against Mcoln2 | inactive: 0.459
GCCUUUGAGCUCAUCUAUATT against 4833441J24Rik | inactive: -0.0621
GGAAUAUAGCGACAUCAUATT against Apba2 | inactive: 0.113
GGUUGAUCUAAAUGAAAUGTT against Idi1 | inactive: -0.641
CCUGCUAAAGGAAUGUCACTT against 2310061C15Rik | inactive: 0.497
GCAACACAUUCCUUAUGAUTT against Entpd6 | inactive: -0.185
GGAGAAAAACUGAGCAGCCTT against Chst12 | inactive: 0.672
GGUGUCUGCGUGAAGAUCATT against Cacng8 | inactive: 0.491
GGGCAUGUUUGCCACCAGUTT against Gpam | inactive: -0.294
GGACCACUGACAUUUUUCATT against Tagln3 | inactive: 0.352
GGCCAUUCCAGCUCUGAAATT against Isl2 | inactive: -0.777
GGAUUUACCACCAAUUAAATT against Vars2 | inactive: -1.59
GGCACAGCUGGAUGAAGAATT against Gucy1b3 | inactive: 0.919
CCUCGUUAUCCUCAUGGGATT against Akp5 | inactive: 0.496
GCUCUUAUCAGCAUGUAUATT against Birc6 | inactive: -0.773
GGAAUCAAAGAUGGAGAGGTT against Galnt3 | inactive: 0.474
GGCCAUGAGGAAAACAAGATT against 0610011B16Rik | inactive: -0.121
GGAGAAUUUGACUUUAAUGTT against Eif4enif1 | inactive: -0.293
CCCAAGCUCGGCUAUCGUATT against 4432406C08Rik | inactive: 0.312
GGACAACCACUUUAAGCUUTT against 2610024N01Rik | inactive: 0.185
GCUCUGCUAGUCAACUGCATT against Nrip2 | inactive: 0.681
CCAAGGUUUGUCAUCUAAGTT against Limk2 | inactive: -0.507
AGGAGCUUUGCUUAGCACUTT against MGC67311 | inactive: -0.484

No new results follow: entries from further up.
Sequence | z-score
GGCCAUGAGGAAAACAAGATT against 0610011B16Rik | inactive: -0.121
GGAGAAUUUGACUUUAAUGTT against Eif4enif1 | inactive: -0.293
CCCAAGCUCGGCUAUCGUATT against 4432406C08Rik | inactive: 0.312
GGACAACCACUUUAAGCUUTT against 2610024N01Rik | inactive: 0.185

(further entries)

Sequence | z-score
GGAAAUCAGCUCAUAAAGUTT against Tcf19 | inactive: -0.0299
GGAGGAUACAGUGGAGGGATT against Fbxl19 | inactive: 0.883
GGAAGUAGGCAGCAUCAUCTT against Pcbp1 | inactive: -0.718
GCCUGUUACGUCAUCAAGATT against 1810036H07Rik | inactive: 0.96
GCUGGUCUAUGUGGAAAGGTT against Brap | inactive: -1.42
GCAGUUUGUAUUUGACCUATT against Txndc4 | inactive: 0.902
AACCUUGCCGUUCUAGACATT against Olfr1423 | inactive: 0.72
GCUAUGUGAAUUUGUAUGATT against 5330431N24Rik | inactive: 1.47
GCAGGUGGUACGCAGACUATT against Ulk1 | inactive: -1.82
CCCUCGAUCCUUUUCACCUTT against Gja4 | inactive: 1.09
GGAUUCGGACUUCAUAAUCTT against Dpp10 | inactive: 0.814
GGACAUCUUUUACCAGGAGTT against Mrps23 | inactive: 0.182
GGUUCACCUGCAUCAUUGGTT against Smc1l2 | inactive: -0.362
GGCAUUCAAAUCAAGAAGATT against 1700123O20Rik | inactive: -0.468
GGGAAUGUUGACUUGUGUUTT against 2700050P07Rik | inactive: -2.24
GGAGUUCUAUGUGUCACCATT against Dnajc5b | inactive: -0.358
GUGUUCAACUCCUGAGUAGTT against Olfr1275 | inactive: 0.337
GGAGAAAUGCUUUUUGUUUTT against Scarb1 | inactive: -1.45
GGUACCAUCACAGUGCGUCTT against D830007E07Rik | inactive: 0.0616
GCCCUUACAGUUACCCUUGTT against BC008184 | inactive: -1.07
GGGAAACGCAAAGCCUUUUTT against Olfr17 | inactive: -0.217
CCAAAACUAGGAAGAAACATT against Olfr716 | inactive: -0.952
CCUUACUCGAUUAAAAGAATT against Eif3s6 | inactive: 1.11
GGAGUUCACCACUAUCAAGTT against 2610039E05Rik | inactive: 0.685
GGAGAUCAAAAAAAGAAAGTT against Cfl2 | inactive: 1.29
GGCCCUGAAGAAAGUUAUUTT against Olfr830 | inactive: 1.17
